Here are results for 1 sequence from US8859496B2 (Postech Academy-Industry Foundation, priority 2010, dated 2014).

The data set is described as follows: peptide made by a vendor. As to conditions: whole synthesis.

End groups of sequences in plain letters are not given here.

With “EWVCDEPKDQTVVGPALAAYRLEDTFGPDPTMIRANCLV (Amino acid sequence of linker polypeptide comprising the linker region of SEQ ID NO 5)”, the “purity (crude or final not stated)” value is reported as “about 99.1%”.
